Measured values reported in patent publication US20130280279A1 (HOFFMANN-LA ROCHE INC., priority 2011, published 2013).
For part of these data: Some peptides are written in HELM: one residue between dots, names in brackets for other building blocks, links after the first $.

Tests used:
[1] = general procedure: Fmoc solid-phase peptide synthesis; TentaGel RAM; HBTU/HOBt, DIPEA; details: whole synthesis, scale 0.25 mmol
[2] = general procedure: Fmoc solid-phase peptide synthesis; TentaGel RAM resin (loading: 0.18 mmol/g; Rapp Polymers, Germany); HBTU/HOBt, DIPEA; details: conjugation step

Q: For Ac-IK-Pqa-RHYLNWVTRQ(N-methyl)RY, which crude mass [1] is on record?
A: 337 mg

Q: And the crude yield [1]?
A: 55%

Q: Which conjugation yield [2] does the source give for “PEPTIDE1{[ac].I.K.[Pqa].R.H.Y.L.N.W.V.T.R.Q.[NMeArg].Y.[am]}|PEPTIDE2{[DigCME].[TEG]}$PEPTIDE1,PEPTIDE2,3:R3-2:R2$$$V2.0” here?
A: 25%
